Some of the results follow. Repeats are few or missing, and single values can be far off.
Tests used:
Test in all cases: reduction in cell viability relative to untreated/vehicle; higher = more growth inhibition
Settings in all cases: 200 nM; 72 h
M229P = system: M229P (parental melanoma line)
M229R = system: M229R (matched melanoma line resistant to BRAF inhibitors)
M238P = system: M238P (parental melanoma line)
M238R = system: M238R (matched melanoma line resistant to BRAF inhibitors)
M249P = system: M249P (parental melanoma line)
M249R = system: M249R (matched melanoma line resistant to BRAF inhibitors)
UACC62P = system: UACC62P (parental melanoma line)
UACC62R = system: UACC62R (matched melanoma line resistant to BRAF inhibitors)

Measured: reduction in cell viability

Cc1cccc(/C=N/Nc2cc(N3CCOCC3)nc(OCCc3ccccn3)n2)c1
1.74%: UACC62P
< 0%: M229P | M238R
47.3%: M249R
10.5%: M238P
13.7%: M229R
40.4%: M249P
2.76%: UACC62R

O=C1NC(=O)/C(=C\c2ccc3nccnc3c2)S1
< 0%: all assays above

CCOC(=O)N1CCN(/[N+]([O-])=N/Oc2ccc([N+](=O)[O-])cc2[N+](=O)[O-])CC1
4.15%: M229R
< 0%: all other assays above

COc1ccc(S(=O)(=O)Nc2cccnc2Nc2ccc(O)cc2)cc1
87.8%: UACC62R
62.8%: M238R
52.4%: UACC62P
33%: M249P
37.7%: M249R
18.4%: M229R
50.2%: M238P
< 0%: M229P

Oc1ccc(C2CNCCc3c2cc(O)c(O)c3Cl)cc1 (stereo not given) [Fenoldopam]
< 0%: all assays above

O=C(O)c1ccc(Nc2ncc3c(n2)-c2ccc(Cl)cc2C(c2c(F)cccc2F)=NC3)cc1
16.2%: UACC62P
7.63%: M229R
24.9%: UACC62R
< 0%: all other assays above

Cc1cn2cc(C(=O)N(C)CCO)cc(N[C@@H]3CCOc4cccc(C)c43)c2n1
< 0%: all assays above

COc1cccc(Nc2c(C(N)=O)cnc3c(C)cc(S(=O)(=O)c4cccc(C(=O)N(C)C)c4)cc23)c1
< 0%: all assays above

O=C(CN1C(=O)C2(CCCC2)NC[C@H]1c1cc(F)cc(F)c1)Nc1ccc2c(c1)C[C@@]1(C2)C(=O)Nc2ncccc21
< 0%: all assays above

COc1cc(C(C)=O)ccc1OCCCN1CCC(c2noc3cc(F)ccc23)CC1 [Iloperidone]
< 0%: all assays above

CC1=C(C(=O)O)N2C(=O)[C@@H](NC(=O)[C@H](N)C3=CCC=CC3)[C@H]2SC1 [Cephradine]
< 0%: all assays above

CC(C)[C@H](NS(=O)(=O)c1ccc(-c2ccc(Br)cc2)cc1)C(=O)O
< 0%: all assays above

Nc1nc2ccc(OC(F)(F)F)cc2s1 [Riluzole]
< 0%: all assays above

O=C(O)c1cccc(-c2noc(-c3ccccc3F)n2)c1
< 0%: all assays above

CCCCC(CC)COC(=O)C(C#N)=C(c1ccccc1)c1ccccc1 (stereo not given) [2-Ethylhexyl-2-cyano-3,3-diphenylacrylate]
3.71%: M249R
< 0%: all other assays above

CC1(C)[C@@H](O[C@H]2O[C@H](C(=O)O)[C@@H](O)[C@H](O)[C@H]2O[C@@H]2O[C@H](C(=O)O)[C@@H](O)[C@H](O)[C@H]2O)CC[C@]2(C)[C@H]3C(=O)C=C4[C@@H]5C[C@@](C)(C(=O)O)CC[C@]5(C)CC[C@@]4(C)[C@]3(C)CC[C@@H]12 [Glycyrrhizin]
< 0%: all assays above

Not a retest: two of the compounds above.
CC(C)[C@H](NS(=O)(=O)c1ccc(-c2ccc(Br)cc2)cc1)C(=O)O
< 0%: all assays above

Nc1nc2ccc(OC(F)(F)F)cc2s1 [Riluzole]
< 0%: all assays above

(listing goes on)

CCN(CC)CCCCNc1ncc2cc(-c3cc(OC)cc(OC)c3)c(NC(=O)NC(C)(C)C)nc2n1
< 0%: all assays above

COc1cccc(-c2ccc(NC(=O)C3=C(C(=O)O)CCC3)c(F)c2)c1 [Vidofludimus]
5.25%: M229R
< 0%: all other assays above

COc1cc(/C=C/C(=O)O)ccc1O [Fumalic acid]
6.56%: M229P
5.66%: M249R
< 0%: all other assays above

CN(C)Cc1cccc(N/C(=C2\C(=O)Nc3cc(C(N)=O)ccc32)c2ccccc2)c1
< 0%: all assays above

From the supplement of paper PMC9015667
